The results in this text go back to PMC8185089.

The chains behind the UniProt entries cited, without tags or fusion partners. Where a name states a change or a piece, a line headed by the entry shows the natural chain unless it says otherwise.
UniProt Q9LZ25: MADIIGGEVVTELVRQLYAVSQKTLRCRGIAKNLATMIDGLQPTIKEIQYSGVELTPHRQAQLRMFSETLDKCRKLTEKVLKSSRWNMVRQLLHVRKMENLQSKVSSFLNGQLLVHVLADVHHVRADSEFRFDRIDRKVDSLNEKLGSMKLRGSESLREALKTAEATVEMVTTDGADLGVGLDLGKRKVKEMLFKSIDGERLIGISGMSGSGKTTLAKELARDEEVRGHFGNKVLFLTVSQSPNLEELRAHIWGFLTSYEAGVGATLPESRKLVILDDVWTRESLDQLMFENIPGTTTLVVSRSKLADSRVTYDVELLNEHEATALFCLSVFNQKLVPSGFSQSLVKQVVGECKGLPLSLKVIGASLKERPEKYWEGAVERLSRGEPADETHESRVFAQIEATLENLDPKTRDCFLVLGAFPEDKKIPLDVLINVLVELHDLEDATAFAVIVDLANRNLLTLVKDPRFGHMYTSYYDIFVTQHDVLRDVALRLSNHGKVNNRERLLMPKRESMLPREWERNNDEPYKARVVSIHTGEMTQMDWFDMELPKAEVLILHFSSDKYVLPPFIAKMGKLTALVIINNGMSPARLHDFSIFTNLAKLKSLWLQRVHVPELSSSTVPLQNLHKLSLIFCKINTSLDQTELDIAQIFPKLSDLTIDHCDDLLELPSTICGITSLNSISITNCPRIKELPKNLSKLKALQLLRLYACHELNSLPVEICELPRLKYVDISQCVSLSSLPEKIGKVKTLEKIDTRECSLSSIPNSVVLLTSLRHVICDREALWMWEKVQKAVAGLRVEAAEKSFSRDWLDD

No constants are given. Whether binding was seen depends on the method and setting. In cells and extracts the contact can be indirect. Where a sequence is shown, tags or fusion partners need not be part of it.

The target of this test is ADR1-L2-StrepII-3xHA (ADR1-L2-SH) (Arabidopsis thaliana) (UniProt Q9LZ25). Description: co-IP; anti-HA affinity matrix IP of the HA-tagged RNL from N. benthamiana epss leaf extracts, anti-FLAG blot; the RNL co-expressed with EDS1-FLAG (or variant) and SAG101-FLAG by Agrobacteria for 48 h, then Pf0-1 XopQ (OD600 0.3), samples at 8-12 hpi; 100 mM Tris-HCl pH 7.5, 300 mM NaCl, 5 mM MgCl2, 0.5% NP-40, 4 °C.

B1: EDS1-3xFLAG (EDS1-FLAG) (protein, UniProt Q9SU72 1-623)
chain: MAFEALTGINGDLITRSWSASKQAYLTERYHKEEAGAVVIFAFQPSFSEKDFFDPDNKSSFGEIKLNRVQFPCMRKIGKGDVATVNEAFLKNLEAIIDPRTSFQASVEMAVRSRKQIVFTGHSSGGATAILATVWYLEKYFIRNPNVYLEPRCVTFGAPLVGDSIFSHALGREKWSRFFVNFVSRFDIVPRIMLARKASVEETLPHVLAQLDPRKSSVQESEQRITEFYTRVMRDTSTVANQAVCELTGSAEAFLETLSSFLELSPYRPAGTFVFSTEKRLVAVNNSDAILQMLFYTSQASDEQEWSLIPFRSIRDHHSYEELVQSMGKKLFNHLDGENSIESTLNDLGVSTRGRQYVQAALEEEKKRVENQKKIIQVIEQERFLKKLAWIEDEYKPKCQAHKNGYYDSFKVSNEENDFKANVKRAELAGVFDEVLGLMKKCQLPDEFEGDIDWIKLATRYRRLVEPLDIANYHRHLKNEDTGPYMKRGRPTRYIYAQRGYEHYILKPNGMIAEDVFWNKVNGLNLGLQLEEIQETLKNSGSECGSCFWAEVEELKGKPYEEVEVRVKTLEGMLGEWITDGEVDDKEIFLEGSTFRKWWITLPKNHKSHSPLRDYMMDEITDT
As to B1, the binding entry was “no binding”.
